Counter-ions that a name gives are not always drawn. The list shows a part of the results. Single values are uncertain here, since repeats match poorly.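 A screen tested FDA-approved drugs combined with one-eighth-MIC colistin against a clinical mcr-1-positive, multidrug-resistant E. coli isolate, measuring OD600 at 24 h. Controls were untreated bacteria (growth) and broth alone (blank). An OD600 under 0.2 marked a combination as active.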
Test system: Escherichia coli 42 (mcr-1-positive clinical isolate)
Experiment: OD600 after 24 h growth with compound plus colistin (absorbance units (OD600)); higher = more bacterial growth (less inhibition)
Details: first compound 25 µM; colistin concentration 0.5 ug/mL; incubation time 24 h; 37 °C

OD600, inactive:
NC(=O)NO [Hydroxyurea] + CCC(C)CCCC(=O)N[C@@H](CCN)C(=O)N[C@H](C(=O)N[C@@H](CCN)C(=O)N[C@H]1CCNC(=O)[C@H]([C@@H](C)O)NC(=O)[C@H](CCN)NC(=O)[C@H](CCN)NC(=O)[C@H](CC(C)C)NC(=O)[C@@H](CC(C)C)NC(=O)[C@H](CCN)NC1=O)[C@@H](C)O [colistin] 1.03
O=C1c2cccc3c2[C@H](CCC3)CN1[C@@H]1CN2CCC1CC2 [Palonosetron hydrochloride] + CCC(C)CCCC(=O)N[C@@H](CCN)C(=O)N[C@H](C(=O)N[C@@H](CCN)C(=O)N[C@H]1CCNC(=O)[C@H]([C@@H](C)O)NC(=O)[C@H](CCN)NC(=O)[C@H](CCN)NC(=O)[C@H](CC(C)C)NC(=O)[C@@H](CC(C)C)NC(=O)[C@H](CCN)NC1=O)[C@@H](C)O [colistin] 1.07
O=c1[nH]cnc2c1ncn2[C@H]1CC[C@@H](CO)O1 [Didanosine] + CCC(C)CCCC(=O)N[C@@H](CCN)C(=O)N[C@H](C(=O)N[C@@H](CCN)C(=O)N[C@H]1CCNC(=O)[C@H]([C@@H](C)O)NC(=O)[C@H](CCN)NC(=O)[C@H](CCN)NC(=O)[C@H](CC(C)C)NC(=O)[C@@H](CC(C)C)NC(=O)[C@H](CCN)NC1=O)[C@@H](C)O [colistin] 0.677

— the supplement of paper PMC11546906
